{"source": "the supplement of paper PMC10338343", "note": "± gives the standard deviation. This is a selection; strong and weak results do not stand in their true shares. Many entries were measured with a wide error.", "data": [{"test_system": "MILI (PIWIL2) piRISC loaded with L1MC piRNA (26 nt)", "assay": "pre-steady-state target cleavage rate (min^-1); MIWI and MILI are mouse PIWI proteins and EfPiwi is from a freshwater sponge; tags in brackets are library labels; higher = faster piRNA-guided slicing of the target", "conditions": "guide: L1MC piRNA 5'p-UAACUAAAUACUAUGCAAGCUGUAGG; auxiliary factor: none (no GTSF1)", "summary_of_the_method": "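Cleave-'n-Seq reactions paired 0.1 nM transcribed, DNA-blocked target RNA library with 1 nM active affinity-purified piRISC holding one synthetic guide, plus or minus 500 nM GTSF1 partner protein, in HEPES–potassium acetate buffer at 33 °C for 0–8 or 0–960 min. After sequencing of uncleaved targets and normalisation to depth and weakly complementary targets, the pre-steady-state cleavage rate was taken from a burst-and-steady-state fit. Three trials were pooled, and k3 was capped at 0.0001 min^-1.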", "values": [{"sequence": "UCCUGGAUGUCCUUGCAUAGUAUUUGAGUUA", "pre-steady-state target cleavage rate": "0.00236 ± 0.0036"}, {"sequence": "UCCUGGAUGAGCUUGCAUUCAAUUUACAAA", "pre-steady-state target cleavage rate": "0.000193 ± 0.034"}, {"sequence": "UCCUGGAUGUCGAUGCAUAGUAUAUACUUA", "pre-steady-state target cleavage rate": "0.000264 ± 0.017"}, {"sequence": "UCCUGGAUGUCGAACGUAAGUAUUAAGUUA", "pre-steady-state target cleavage rate": "0.000292 ± 0.016"}, {"sequence": "UCCUGGAUGUCGAAGCAUACUAUUUAGUAA", "pre-steady-state target cleavage rate": "0.000247 ± 0.017"}, {"sequence": "UCCUGGAUGUCGAACGUUAGUAGUUUAGUUA", "pre-steady-state target cleavage rate": "0.000181 ± 0.026"}, {"sequence": "UCCUGGAUGUCGAAGCAUACUAUUUACUUA", "pre-steady-state target cleavage rate": "0.000184 ± 0.024"}, {"sequence": "UCCUGGAACAGCUUGCAUAGGAUUUAGUUA", "pre-steady-state target cleavage rate": "0.0014 ± 0.0046"}, {"sequence": "UCCUGGAUGUCGUUGCAUUGUAUUAAGUUA", "pre-steady-state target cleavage rate": "0.000176 ± 0.036"}, {"sequence": "UCCUGGAUGUCGAAGUCAUAGUAUUUAGUUA", "pre-steady-state target cleavage rate": "0.00105 ± 0.0047"}, {"sequence": "UCCUGGAUGUCGAACGAUAGUAUGUUAGUUA", "pre-steady-state target cleavage rate": "< 0.0001"}, {"sequence": "UCCUGGUUCAGCUUGCAUAGUAUUUAGAAA", "pre-steady-state target cleavage rate": "0.00151 ± 0.0045"}, {"sequence": "UCCUGGAUGUCCUUGGAUUGUAUUUAGUUA", "pre-steady-state target cleavage rate": "0.000735 ± 0.0066"}, {"sequence": "UCCUGGUACAGCUUGCAUAGUAAAUAGUUA", "pre-steady-state target cleavage rate": "0.00287 ± 0.0033"}, {"sequence": "UCCUCCUACAGCUUGCAUAGUAUUUUGUAA", "pre-steady-state target cleavage rate": "0.0015 ± 0.004"}, {"sequence": "UCCUGGAUGUCGAACGUAAGUAUUAUGUUA", "pre-steady-state target cleavage rate": "0.000181 ± 0.03"}, {"sequence": "UCCUGGAUGUCGAACGUUUGUAUUAAGUUA", "pre-steady-state target cleavage rate": "0.00014 ± 0.023"}, {"sequence": "UCCUGGAUGUCGAACGUAAGUAAUUACUUA", "pre-steady-state target cleavage rate": "0.000111 ± 0.034"}, {"sequence": "UCCUGGAUGUCGAACGUAUCUAAUUAGUUA", "pre-steady-state target cleavage rate": "< 0.0001"}, {"sequence": "UCCUGGAUGUCGAACGUAUCUAUUUACGUUA", "pre-steady-state target cleavage rate": "0.00033 ± 0.015"}, {"sequence": "UCCUGGAUGAGCUUGCAUAGUAUUAAGAUA", "pre-steady-state target cleavage rate": "0.0012 ± 0.0047"}, {"sequence": "UCCUGGAUGUCGAACGUUAGUAUGUAGUUA", "pre-steady-state target cleavage rate": "0.000169 ± 0.028"}, {"sequence": "UCCUGGAUGUCGAACGUAUGUGUUUAGUUA", "pre-steady-state target cleavage rate": "< 0.0001"}, {"sequence": "UCCUCCUACAGGUUGCAUAGUAUUUAGAAA", "pre-steady-state target cleavage rate": "0.00153 ± 0.0036"}, {"sequence": "UCCUGGAUGAGCUUGCAUAGUAUUUAGAUUA", "pre-steady-state target cleavage rate": "0.00184 ± 0.004"}, {"sequence": "UCCUGGAUGAGCUAGCAUAGUAUUUACUUA", "pre-steady-state target cleavage rate": "0.00208 ± 0.0039"}, {"sequence": "UCCUGGAUGUCCAUCCAUAGUAUUUAGUUA", "pre-steady-state target cleavage rate": "0.000798 ± 0.0094"}, {"sequence": "UCCUCCAUGAGCUUGCAUAGUAUUUACAAA", "pre-steady-state target cleavage rate": "0.000912 ± 0.0064"}]}]}
